For this test, the target named is T1, Sestrin2 (SESN2) in HK-2 cells (human (endogenous in HK-2)) (UniProt P58004).
T1 sequence: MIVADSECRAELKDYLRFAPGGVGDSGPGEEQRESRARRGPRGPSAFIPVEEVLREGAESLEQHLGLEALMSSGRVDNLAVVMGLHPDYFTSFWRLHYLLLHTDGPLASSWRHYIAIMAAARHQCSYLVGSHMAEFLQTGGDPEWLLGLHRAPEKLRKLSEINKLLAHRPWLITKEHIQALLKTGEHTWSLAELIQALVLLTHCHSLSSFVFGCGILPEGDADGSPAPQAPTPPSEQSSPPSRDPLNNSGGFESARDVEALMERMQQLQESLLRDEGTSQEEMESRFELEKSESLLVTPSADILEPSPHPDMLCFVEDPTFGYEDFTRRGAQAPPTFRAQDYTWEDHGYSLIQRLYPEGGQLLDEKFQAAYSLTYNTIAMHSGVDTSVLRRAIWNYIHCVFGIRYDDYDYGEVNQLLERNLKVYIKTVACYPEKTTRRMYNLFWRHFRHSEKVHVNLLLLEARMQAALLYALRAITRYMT
Put plainly: co-IP; anti-SESN2 or anti-Rab-7a antibody on protein A magnetic beads, incubated with HK-2 cell lysates overnight at 4 °C; western blotting. For orientation: Immunoblotting shows a protein as a band on a membrane.

Amino acid sequences for entries named in this document (tags omitted).
UniProt P51149: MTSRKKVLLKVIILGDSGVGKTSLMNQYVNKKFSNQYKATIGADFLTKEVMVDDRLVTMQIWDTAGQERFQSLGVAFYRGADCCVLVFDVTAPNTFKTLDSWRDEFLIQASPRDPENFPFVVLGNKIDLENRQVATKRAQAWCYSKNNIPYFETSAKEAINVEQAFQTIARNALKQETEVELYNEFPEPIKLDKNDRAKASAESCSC

Results are given in words; binding and its absence hold for the method and conditions named. In cells and extracts the contact can be indirect. Some entries that bind do so weakly or less than the wild type.

For Rab-7a (from UniProt P51149 1-207), the binding result was “binds”.

Source of the values: paper PMC12223778.
